From paper PMC8461901
These are yes or no findings as the source states them, for the method shown. Binding seen in cells or lysates may run through a third protein. Here binding means that the protein was enriched with, or labelled near, the bait; the list need not be complete.

The chains behind the UniProt entries cited, without tags or fusion partners.
UniProt Q93009: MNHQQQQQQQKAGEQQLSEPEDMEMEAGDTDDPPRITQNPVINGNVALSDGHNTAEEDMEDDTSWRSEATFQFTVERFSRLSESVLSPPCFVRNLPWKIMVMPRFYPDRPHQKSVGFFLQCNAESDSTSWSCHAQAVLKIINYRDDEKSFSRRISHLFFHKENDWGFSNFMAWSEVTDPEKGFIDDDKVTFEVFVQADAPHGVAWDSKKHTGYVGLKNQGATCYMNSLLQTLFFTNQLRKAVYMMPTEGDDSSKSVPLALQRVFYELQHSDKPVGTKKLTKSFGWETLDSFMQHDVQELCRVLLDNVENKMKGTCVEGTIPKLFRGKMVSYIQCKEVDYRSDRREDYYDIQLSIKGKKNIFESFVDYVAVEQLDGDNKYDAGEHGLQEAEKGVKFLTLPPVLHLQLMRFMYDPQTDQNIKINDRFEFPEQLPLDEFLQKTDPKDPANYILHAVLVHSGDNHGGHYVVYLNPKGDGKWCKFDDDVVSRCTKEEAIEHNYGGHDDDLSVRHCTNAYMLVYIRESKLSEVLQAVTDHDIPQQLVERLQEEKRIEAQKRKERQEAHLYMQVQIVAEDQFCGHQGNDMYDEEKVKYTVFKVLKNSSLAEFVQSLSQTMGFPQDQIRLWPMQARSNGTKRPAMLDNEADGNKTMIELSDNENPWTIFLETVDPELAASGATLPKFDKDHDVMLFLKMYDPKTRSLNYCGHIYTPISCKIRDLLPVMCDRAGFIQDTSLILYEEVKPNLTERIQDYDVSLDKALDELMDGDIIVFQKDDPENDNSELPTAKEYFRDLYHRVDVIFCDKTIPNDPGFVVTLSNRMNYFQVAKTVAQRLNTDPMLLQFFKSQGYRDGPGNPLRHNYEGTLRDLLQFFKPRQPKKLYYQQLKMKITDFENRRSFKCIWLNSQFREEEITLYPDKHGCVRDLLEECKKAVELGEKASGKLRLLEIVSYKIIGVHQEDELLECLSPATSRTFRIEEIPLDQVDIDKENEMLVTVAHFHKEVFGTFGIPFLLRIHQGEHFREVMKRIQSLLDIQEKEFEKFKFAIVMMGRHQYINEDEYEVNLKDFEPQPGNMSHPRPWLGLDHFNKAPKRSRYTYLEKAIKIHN
UniProt P18085: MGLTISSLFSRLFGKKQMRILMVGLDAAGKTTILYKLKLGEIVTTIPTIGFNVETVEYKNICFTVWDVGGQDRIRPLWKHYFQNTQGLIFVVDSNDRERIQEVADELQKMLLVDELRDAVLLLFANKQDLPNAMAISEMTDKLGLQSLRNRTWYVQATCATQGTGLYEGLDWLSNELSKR

Biological target: Ubiquitin-specific protease 7 (human (endogenous in SHG-140)) (UniProt Q93009)
Assay: affinity purification with mass spectrometry; anti-USP7 added to SHG-140 cell protein extracts, protein A/G magnetic beads overnight at 4 °C, precipitates resolved by SDS-PAGE, Coomassie stained, LC-MS/MS (Q-Exactive)

- binding: binds
Substance: ADP-ribosylation factor 4 (from UniProt P18085 1-180)
